Measurements: patent publication US20230357384A1
Results are given in words; binding and its absence hold for the method and conditions named. Some entries that bind do so weakly or less than the wild type. For part of these data: Sequences can lack the tags named with a protein. Values belong to the binder of their own block, whether it stands above or below them.

Columns and labels:
[1] = biological target: T1, FLRT3-His monomeric fusion protein (Homo sapiens (Human)) (UniProt Q9NZU0); experiment: Octet, FLRT3 antibodies and FLRT3 monomer
T1 sequence: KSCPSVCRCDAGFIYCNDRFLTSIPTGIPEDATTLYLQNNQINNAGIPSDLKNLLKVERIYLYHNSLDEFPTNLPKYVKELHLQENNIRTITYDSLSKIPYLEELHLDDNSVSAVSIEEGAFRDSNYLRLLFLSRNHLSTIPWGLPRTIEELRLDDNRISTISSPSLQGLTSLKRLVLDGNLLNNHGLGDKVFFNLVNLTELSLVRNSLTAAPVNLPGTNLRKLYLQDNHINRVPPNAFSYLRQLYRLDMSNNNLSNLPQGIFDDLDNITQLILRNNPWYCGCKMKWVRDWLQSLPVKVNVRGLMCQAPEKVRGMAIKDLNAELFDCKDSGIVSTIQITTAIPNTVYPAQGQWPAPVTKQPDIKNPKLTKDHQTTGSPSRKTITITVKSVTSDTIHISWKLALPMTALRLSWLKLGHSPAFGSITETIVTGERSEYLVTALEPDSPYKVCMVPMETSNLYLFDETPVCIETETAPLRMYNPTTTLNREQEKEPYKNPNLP

[2] = biological target: T2, FLRT3-Fc (Homo sapiens (Human)) (UniProt Q9NZU0); experiment: flow cytometry competition: FLRT3-Fc binding to Unc5B on cells with titrated antibody
T2 sequence (chain, biotin label in Example 8 (site not stated)): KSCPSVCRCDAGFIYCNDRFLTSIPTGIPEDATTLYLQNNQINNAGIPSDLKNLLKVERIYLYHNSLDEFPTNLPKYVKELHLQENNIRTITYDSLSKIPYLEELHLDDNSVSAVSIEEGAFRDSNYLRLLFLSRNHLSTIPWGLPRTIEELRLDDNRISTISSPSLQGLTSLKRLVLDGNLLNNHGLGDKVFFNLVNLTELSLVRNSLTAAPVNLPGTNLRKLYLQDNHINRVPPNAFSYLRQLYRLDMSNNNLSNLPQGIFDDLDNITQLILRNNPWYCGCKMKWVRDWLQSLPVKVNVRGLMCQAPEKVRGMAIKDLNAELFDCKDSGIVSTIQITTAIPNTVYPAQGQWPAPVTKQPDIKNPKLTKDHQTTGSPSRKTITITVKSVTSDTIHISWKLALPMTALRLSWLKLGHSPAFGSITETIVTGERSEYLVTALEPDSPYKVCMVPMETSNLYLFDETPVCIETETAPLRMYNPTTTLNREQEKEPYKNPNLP

[3] = biological target: T3, mouse FLRT3 on transiently transfected 293T cells (mouse) (UniProt Q8BGT1); experiment: flow cytometry (AF647 MFI), transiently transfected mFLRT3-293T cells
T3 sequence: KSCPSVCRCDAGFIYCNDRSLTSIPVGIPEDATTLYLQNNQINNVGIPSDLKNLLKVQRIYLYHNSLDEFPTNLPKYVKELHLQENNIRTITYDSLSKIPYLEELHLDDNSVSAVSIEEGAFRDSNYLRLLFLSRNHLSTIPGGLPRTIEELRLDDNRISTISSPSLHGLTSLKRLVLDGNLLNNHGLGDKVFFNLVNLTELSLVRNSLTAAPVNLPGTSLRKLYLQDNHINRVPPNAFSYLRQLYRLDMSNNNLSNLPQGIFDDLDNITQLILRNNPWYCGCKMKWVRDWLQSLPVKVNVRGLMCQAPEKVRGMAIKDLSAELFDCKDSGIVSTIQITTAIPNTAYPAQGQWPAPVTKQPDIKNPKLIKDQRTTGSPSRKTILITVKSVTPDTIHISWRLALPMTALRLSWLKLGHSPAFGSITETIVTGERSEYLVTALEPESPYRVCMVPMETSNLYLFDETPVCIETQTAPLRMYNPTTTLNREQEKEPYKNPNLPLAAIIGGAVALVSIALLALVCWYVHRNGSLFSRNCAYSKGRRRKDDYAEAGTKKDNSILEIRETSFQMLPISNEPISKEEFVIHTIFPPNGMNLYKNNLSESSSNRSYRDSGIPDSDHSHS

[4] = biological target: T2, FLRT3-Fc (Homo sapiens (Human)); experiment: competition ELISA: FLRT3-Fc binding to coated UNC5B with titrated antibody
[5] = biological target: human FLRT3 on cells (human) (UniProt Q9NZU0); experiment: flow cytometry, SKOV3 cells, 14B7 against Ctrl G4P
[6] = biological target: T2, FLRT3-Fc (Homo sapiens (Human)); experiment: competition ELISA: FLRT3-Fc binding to coated UNC5C with titrated antibody
[7] = biological target: human FLRT3 on cells (human) (UniProt Q9NZU0); experiment: non-linear regression fit of the normalised flow cytometry data, 293T-hFLRT3 cells
[8] = biological target: T2, FLRT3-Fc (Homo sapiens (Human)); experiment: competition ELISA: FLRT3-Fc binding to coated UNC5D with titrated antibody
[9] = biological target: human FLRT3 on cells (human) (UniProt Q9NZU0); experiment: flow cytometry on 293T-hFLRT3 cells, MFI normalised to % of maximal response
[10] = biological target: human FLRT3 on cells (human) (UniProt Q9NZU0); experiment: flow cytometry (AF647 MFI), FLRT3-293T-OKT3 cells, antibody titration
[11] = biological target: human FLRT3 on cells (human) (UniProt Q9NZU0); experiment: flow cytometry, HT29-OKT3 cells, 14B7 against Ctrl G4P
[12] = biological target: T2, FLRT3-Fc (Homo sapiens (Human)); experiment: competition ELISA: FLRT3-Fc biotin binding to coated Unc5B-Fc with titrated antibody
[13] = biological target: T1, FLRT3-His monomeric fusion protein (Homo sapiens (Human)); experiment: Octet (FIG. 18)
[14] = biological target: T3, mouse FLRT3 on transiently transfected 293T cells (mouse); experiment: flow cytometry on mFLRT3 transfected cells (legend of FIG. 13)
[15] = biological target: T1, FLRT3-His monomeric fusion protein (Homo sapiens (Human)); experiment: kinetic affinity measurement with FLRT3-His monomer (Table 1)
[16] = biological target: T3, mouse FLRT3 on transiently transfected 293T cells (mouse); experiment: flow cytometry on 293T cells transiently transfected with mFLRT3
[17] = biological target: human FLRT3 on cells (human) (UniProt Q9NZU0); experiment: flow cytometry (AF647 MFI), A549 cells with endogenous hFLRT3
[18] = biological target: human FLRT3 on cells (human) (UniProt Q9NZU0); experiment: flow cytometry, 624 MEL cells, 14B7 against Ctrl G4P
[19] = biological target: human FLRT3 on cells (human) (UniProt Q9NZU0); experiment: flow cytometry, SAOS2 cells, 14B7 against Ctrl G4P
[20] = biological target: T2, FLRT3-Fc (Homo sapiens (Human)); experiment: competition ELISA: FLRT3-Fc binding to coated UNC5A with titrated antibody
[21] = biological target: human FLRT3 on cells (human) (UniProt Q9NZU0); experiment: non-linear regression fit of the normalised flow cytometry data, A549 cells
[22] = biological target: T2, FLRT3-Fc (Homo sapiens (Human)); experiment: competition ELISA: Unc5B-Fc biotin binding to coated FLRT3-Fc with titrated antibody
[23] = biological target: human FLRT3 on cells (human) (UniProt Q9NZU0); experiment: flow cytometry, HEK293T-OKT3 cells, 14B7 against Ctrl G4P
[24] = biological target: human FLRT3 on cells (human) (UniProt Q9NZU0); experiment: flow cytometry on A549 cells, MFI normalised to % of maximal response
[25] = biological target: human FLRT3 on cells (human) (UniProt Q9NZU0); experiment: flow cytometry, MCF7 cells, 14B7 against Ctrl G4P
[26] = biological target: human FLRT3 on cells (human) (UniProt Q9NZU0); experiment: flow cytometry, A549 cells, 14B7 against Ctrl G4P

binding [1]: binds
B1: 17A1 (antibody, V domains shown)
VH: EVQLQQSGPELVKPGASVKMSCKASGYTFTDYYMNWVKQSHGKSLEWIGRVNPSNGGTTYNQKFKGKATLTVDKSLSTAYMQLNSLTSEDSAVYYCARNFLMDYWGQGTSVTVSS
VL: DIVMTQSHKFMSTSVGDRVSITCKASQDVGTAVAWYQQKPGQSPKLLIYWASTRHTGVPDRFTGSGSGTDFALTISNVQSADLAYYFCQQYSNYPTFGGGTKLEIK

binding [2]: binds | binding [3]: binds | binding [4]: binds | binding [5]: binds | binding [6]: binds | binding [7]: binds | binding [8]: binds | binding [9]: binds | binding [10]: binds | binding [11]: binds | binding [12]: binds | binding [13]: binds | binding [14]: binds | binding [15]: binds | binding [16]: binds | binding [17]: binds | binding [18]: binds | binding [19]: binds | binding [20]: binds | binding [21]: binds | binding [22]: binds | binding [1]: binds | binding [23]: binds | binding [24]: binds | binding [25]: binds | binding [26]: binds
B2: 14B7 (antibody, V domains shown)
VH: QVQLQQSGPELVKPGASVNISCKASGYAFGNSWMNWVKQRPGKGLEWIGWIYPGDGNANYNGKFKGKATLTADKSSSTAYMQLSSLTSEDSAVYFCARALYDYDGWFAYWGQGTLVTVSA
VL: DIQMNQSPSSLSASLGDTITIACRASQNIDIWLSWYQQKPGSIPKLLIYKASNLHTGVPSRFSGSGSGTDFTLTISSLQPEDIATYYCLQGQSFPFTFGSGTKLEIK
